The test deals with L1210 leukemia ip in BDF1 mice, survival T/C. The test can be described thus: NCI In Vivo Anticancer Drug Screen. Data for tumor model L1210 Leukemia (intraperitoneal) in B6D2F1 (BDF1) mice. Conditions: T/C endpoint: mean survival time, higher T/C = longer survival.

The list is a part of this screen's results and no random one: it gathers tests that were run many times, whatever their T/C, doses with no T/C, and many T/C values between a quarter and a half above the control. Other doses and runs of a compound stand elsewhere. T/C is the treated group as % of the vehicle group. Some entries give survivors of the animals treated and no T/C: the source files T/C as zero there, which appears to mark a toxic dose or a test without result, not a measured value. Some survivor counts are full or nearly so, which does not show that the dose was tolerated: survival well below the control is almost never listed, so the zero probably covers shortened survival too. Survivors were counted at the toxicity check, usually on the fifth day, unless a day is given; later deaths do not show. Schedule codes are those of the source, taken here to give the interval after Q, in days (D) or hours (H), and the number of doses after X. Some doses were run more than once; their values stand side by side, smallest first. For survival time, this PubChem deposit counts one and a half times the control or more as active, and values a quarter to a half above the control carry no call in these data; other NCI protocols may use other cut-offs. Some T/C values carry the count of animals alive at the toxicity check (mostly the fifth day); where none is given, no animal had died by that day.

`CN(C)CC/C=C1\c2ccccc2Sc2ccc(Cl)cc21`: the survivor count reads like this: (dose: 2.99 mg/kg/injection, schedule: Q03HX024 (ip), vehicle: Klucel (hydroxypropylcellulose) (HPC)) 2 of 6; (dose: 5.98 mg/kg/injection, schedule: Q03HX024 (ip), vehicle: Klucel (hydroxypropylcellulose) (HPC)) 1 of 6; (dose: 11.96 mg/kg/injection, schedule: Q03HX024 (ip), vehicle: Klucel (hydroxypropylcellulose) (HPC)) 0 of 6; (dose: 23.92 mg/kg/injection, schedule: Q03HX024 (ip), vehicle: Klucel (hydroxypropylcellulose) (HPC)) 0 of 6; (dose: 45.0 mg/kg/injection, schedule: Q01DX001 (ip), vehicle: saline) 2 of 6; (dose: 62.5 mg/kg/injection, schedule: Q01DX009 (ip), vehicle: Klucel (hydroxypropylcellulose) (HPC)) 0 of 6. Moreover, the survivor count (dose: 62.5 mg/kg/injection, schedule: Q04DX003 (ip), vehicle: Klucel (hydroxypropylcellulose) (HPC)) is given as 2 of 4; the survivor count (dose: 90.0 mg/kg/injection, schedule: Q01DX001 (ip), vehicle: saline) is recorded as 0 of 6; the survivor count (dose: 93.75 mg/kg/injection, schedule: Q01DX001 (ip), vehicle: Klucel (hydroxypropylcellulose) (HPC)) was 3 of 6; the survivor count (dose: 125.0 mg/kg/injection, schedule: Q04DX003 (ip), vehicle: Klucel (hydroxypropylcellulose) (HPC)) is given as 0 of 4; the survivor count (dose: 187.5 mg/kg/injection, schedule: Q01DX001 (ip), vehicle: Klucel (hydroxypropylcellulose) (HPC)) was 0 of 6; the survivor count (dose: 250.0 mg/kg/injection, schedule: Q04DX003 (ip), vehicle: Klucel (hydroxypropylcellulose) (HPC)) is listed as 0 of 4. Also, the T/C was 130 % of control [5 of 6 alive] (dose: 11.71 mg/kg/injection, schedule: Q01DX001 (ip), vehicle: Klucel (hydroxypropylcellulose) (HPC)); 125 % of control [3 of 4 alive] (dose: 15.62 mg/kg/injection, schedule: Q04DX003 (ip), vehicle: Klucel (hydroxypropylcellulose) (HPC)); 126 % of control [5 of 6 alive] (dose: 46.87 mg/kg/injection, schedule: Q01DX001 (ip), vehicle: Klucel (hydroxypropylcellulose) (HPC)); 125 % of control [5 of 6 alive] (dose: 60.0 mg/kg/injection, schedule: Q01DX001 (ip), vehicle: Klucel (hydroxypropylcellulose) (HPC)).
As to `CCCCOC(=O)C#CC(=O)OCCCC`, the survivor count was 5 of 6 (dose: 25.0 mg/kg/injection, schedule: Q01DX009 (ip), vehicle: carboxymethylcellulose (CMC)) and 6 of 6 (dose: 50.0 mg/kg/injection, schedule: Q04DX002 (ip), vehicle: carboxymethylcellulose (CMC)).
With `CCNCC#CCNCC`, the survivor count (dose: 400.0 mg/kg/injection, schedule: Q01DX009 (ip), vehicle: saline) was 2 of 6.
In the case of `OCCNC(=S)SCc1ccccc1`, the survivor count (dose: 400.0 mg/kg/injection, schedule: Q01DX009 (sc), vehicle: olive oil, sesame oil, peanut oil) is 3 of 6.
`COc1cc(/C=C/[N+](=O)[O-])ccc1O`: the survivor count is given as 4 of 6 (dose: 200.0 mg/kg/injection, schedule: Q01DX009 (ip), vehicle: Klucel (hydroxypropylcellulose) (HPC)) and 0 of 6 (dose: 400.0 mg/kg/injection, schedule: Q01DX009 (ip), vehicle: Klucel (hydroxypropylcellulose) (HPC)).
For `CCOP(=O)(Cc1ccc(Cl)cc1)OCC`, the survivor count (dose: 400.0 mg/kg/injection, schedule: Q01DX009 (ip), vehicle: carboxymethylcellulose (CMC)) was 0 of 3 and 0 of 6; the survivor count (dose: 400.0 mg/kg/injection, schedule: Q04DX003 (ip), vehicle: carboxymethylcellulose (CMC)) was 0 of 6.
In the case of `ClCCN(CC1C(c2ccccc2)C1c1ccccc1)C1CCCCC1` (configuration not stated), the survivor count by setting is: (dose: 25.0 mg/kg/injection, schedule: Q04DX002 (ip), vehicle: Klucel (hydroxypropylcellulose) (HPC)) 3 of 3; (dose: 50.0 mg/kg/injection, schedule: Q04DX002 (ip), vehicle: Klucel (hydroxypropylcellulose) (HPC)) 2 of 3; (dose: 100.0 mg/kg/injection, schedule: Q04DX002 (ip), vehicle: Klucel (hydroxypropylcellulose) (HPC)) 0 of 3.

Source of the values: PubChem BioAssay AID248 (DTP/NCI, 2004).
